Measurements from PMC5731862.

Amino acid sequences for entries named in this document (tags omitted). Residues count along the entry.
UniProt O54967: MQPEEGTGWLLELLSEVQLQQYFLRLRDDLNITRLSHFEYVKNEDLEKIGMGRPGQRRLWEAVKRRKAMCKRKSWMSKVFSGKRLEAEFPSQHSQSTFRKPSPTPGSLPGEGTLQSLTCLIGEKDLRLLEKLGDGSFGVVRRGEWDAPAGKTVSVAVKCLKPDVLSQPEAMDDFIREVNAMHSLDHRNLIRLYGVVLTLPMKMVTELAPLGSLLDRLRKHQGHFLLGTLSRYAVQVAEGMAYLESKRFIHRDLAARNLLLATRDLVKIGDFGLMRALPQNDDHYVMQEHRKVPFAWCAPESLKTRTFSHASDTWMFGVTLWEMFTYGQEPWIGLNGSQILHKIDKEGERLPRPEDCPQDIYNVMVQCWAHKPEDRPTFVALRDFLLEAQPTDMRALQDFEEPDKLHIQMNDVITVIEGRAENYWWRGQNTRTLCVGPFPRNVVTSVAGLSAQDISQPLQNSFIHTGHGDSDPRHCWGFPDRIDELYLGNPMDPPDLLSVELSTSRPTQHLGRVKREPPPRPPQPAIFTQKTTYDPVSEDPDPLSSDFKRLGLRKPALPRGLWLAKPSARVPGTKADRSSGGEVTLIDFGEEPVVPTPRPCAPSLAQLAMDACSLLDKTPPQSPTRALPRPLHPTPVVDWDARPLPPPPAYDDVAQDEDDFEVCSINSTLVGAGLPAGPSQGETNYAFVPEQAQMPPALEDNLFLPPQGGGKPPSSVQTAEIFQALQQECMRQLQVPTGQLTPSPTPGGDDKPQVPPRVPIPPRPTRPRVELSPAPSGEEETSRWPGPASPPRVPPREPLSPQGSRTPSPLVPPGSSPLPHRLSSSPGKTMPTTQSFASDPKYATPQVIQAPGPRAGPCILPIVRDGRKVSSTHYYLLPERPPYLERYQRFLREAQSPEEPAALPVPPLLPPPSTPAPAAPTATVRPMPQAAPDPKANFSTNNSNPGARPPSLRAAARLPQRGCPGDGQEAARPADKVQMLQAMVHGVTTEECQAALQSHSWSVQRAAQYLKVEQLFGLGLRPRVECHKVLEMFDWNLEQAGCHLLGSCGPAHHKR
UniProt P11798: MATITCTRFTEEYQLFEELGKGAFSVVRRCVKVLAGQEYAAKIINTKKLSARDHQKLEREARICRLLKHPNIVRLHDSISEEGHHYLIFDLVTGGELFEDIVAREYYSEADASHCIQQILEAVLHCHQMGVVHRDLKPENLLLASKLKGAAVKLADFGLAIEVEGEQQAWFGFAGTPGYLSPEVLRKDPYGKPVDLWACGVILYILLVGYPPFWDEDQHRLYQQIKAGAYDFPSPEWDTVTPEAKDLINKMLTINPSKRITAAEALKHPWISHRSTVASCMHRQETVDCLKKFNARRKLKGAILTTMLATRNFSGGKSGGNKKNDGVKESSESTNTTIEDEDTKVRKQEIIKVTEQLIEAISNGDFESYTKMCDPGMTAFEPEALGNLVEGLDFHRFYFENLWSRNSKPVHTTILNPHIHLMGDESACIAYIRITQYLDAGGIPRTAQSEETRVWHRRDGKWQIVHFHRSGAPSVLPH
UniProt P13595, residues 20-1115: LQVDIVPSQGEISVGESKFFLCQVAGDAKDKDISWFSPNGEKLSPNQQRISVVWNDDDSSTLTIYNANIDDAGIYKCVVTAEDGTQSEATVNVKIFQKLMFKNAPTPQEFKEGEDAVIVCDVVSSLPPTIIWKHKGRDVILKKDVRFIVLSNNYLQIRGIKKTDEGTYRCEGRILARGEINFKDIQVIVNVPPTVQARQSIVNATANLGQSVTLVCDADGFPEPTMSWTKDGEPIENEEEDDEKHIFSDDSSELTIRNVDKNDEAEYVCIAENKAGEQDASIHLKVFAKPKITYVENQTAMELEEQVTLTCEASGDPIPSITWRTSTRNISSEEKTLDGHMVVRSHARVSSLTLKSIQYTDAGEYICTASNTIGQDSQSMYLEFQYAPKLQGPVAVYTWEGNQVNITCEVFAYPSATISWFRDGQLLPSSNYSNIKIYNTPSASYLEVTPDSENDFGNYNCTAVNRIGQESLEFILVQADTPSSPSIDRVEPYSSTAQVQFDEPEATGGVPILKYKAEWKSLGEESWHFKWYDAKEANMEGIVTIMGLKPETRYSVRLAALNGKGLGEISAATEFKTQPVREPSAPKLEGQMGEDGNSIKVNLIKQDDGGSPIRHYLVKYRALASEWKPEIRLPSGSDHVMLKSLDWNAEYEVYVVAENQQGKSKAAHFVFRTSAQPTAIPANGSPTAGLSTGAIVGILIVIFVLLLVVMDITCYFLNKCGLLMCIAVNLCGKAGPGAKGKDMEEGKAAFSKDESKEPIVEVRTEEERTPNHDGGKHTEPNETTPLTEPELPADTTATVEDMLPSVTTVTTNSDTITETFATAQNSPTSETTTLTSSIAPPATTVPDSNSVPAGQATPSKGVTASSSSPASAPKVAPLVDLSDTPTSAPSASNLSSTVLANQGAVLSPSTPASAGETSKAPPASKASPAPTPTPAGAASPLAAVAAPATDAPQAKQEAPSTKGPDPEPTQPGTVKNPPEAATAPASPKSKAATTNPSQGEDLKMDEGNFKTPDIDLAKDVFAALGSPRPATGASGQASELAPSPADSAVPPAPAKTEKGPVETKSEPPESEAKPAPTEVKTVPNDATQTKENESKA
UniProt Q6R891: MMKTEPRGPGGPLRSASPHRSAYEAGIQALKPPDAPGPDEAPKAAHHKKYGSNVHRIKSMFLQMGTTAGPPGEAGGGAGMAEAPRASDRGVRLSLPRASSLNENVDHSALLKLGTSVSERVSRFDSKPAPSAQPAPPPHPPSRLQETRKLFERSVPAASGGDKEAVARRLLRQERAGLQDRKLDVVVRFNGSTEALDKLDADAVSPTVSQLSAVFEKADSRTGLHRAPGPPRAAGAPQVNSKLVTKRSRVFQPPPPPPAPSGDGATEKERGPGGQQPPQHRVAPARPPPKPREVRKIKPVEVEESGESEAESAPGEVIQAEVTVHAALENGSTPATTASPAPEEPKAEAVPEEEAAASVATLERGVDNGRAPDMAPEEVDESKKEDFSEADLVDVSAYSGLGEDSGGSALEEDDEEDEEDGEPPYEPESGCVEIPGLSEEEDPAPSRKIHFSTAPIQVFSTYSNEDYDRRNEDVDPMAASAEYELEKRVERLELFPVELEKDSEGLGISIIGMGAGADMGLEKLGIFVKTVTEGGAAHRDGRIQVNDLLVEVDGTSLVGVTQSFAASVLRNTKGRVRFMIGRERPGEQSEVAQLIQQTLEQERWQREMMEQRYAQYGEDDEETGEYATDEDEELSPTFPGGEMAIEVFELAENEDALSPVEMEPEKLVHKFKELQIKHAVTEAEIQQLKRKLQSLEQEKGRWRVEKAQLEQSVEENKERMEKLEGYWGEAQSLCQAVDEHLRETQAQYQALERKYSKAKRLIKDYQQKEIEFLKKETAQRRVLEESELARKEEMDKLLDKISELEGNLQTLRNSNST
UniProt Q7TSJ2: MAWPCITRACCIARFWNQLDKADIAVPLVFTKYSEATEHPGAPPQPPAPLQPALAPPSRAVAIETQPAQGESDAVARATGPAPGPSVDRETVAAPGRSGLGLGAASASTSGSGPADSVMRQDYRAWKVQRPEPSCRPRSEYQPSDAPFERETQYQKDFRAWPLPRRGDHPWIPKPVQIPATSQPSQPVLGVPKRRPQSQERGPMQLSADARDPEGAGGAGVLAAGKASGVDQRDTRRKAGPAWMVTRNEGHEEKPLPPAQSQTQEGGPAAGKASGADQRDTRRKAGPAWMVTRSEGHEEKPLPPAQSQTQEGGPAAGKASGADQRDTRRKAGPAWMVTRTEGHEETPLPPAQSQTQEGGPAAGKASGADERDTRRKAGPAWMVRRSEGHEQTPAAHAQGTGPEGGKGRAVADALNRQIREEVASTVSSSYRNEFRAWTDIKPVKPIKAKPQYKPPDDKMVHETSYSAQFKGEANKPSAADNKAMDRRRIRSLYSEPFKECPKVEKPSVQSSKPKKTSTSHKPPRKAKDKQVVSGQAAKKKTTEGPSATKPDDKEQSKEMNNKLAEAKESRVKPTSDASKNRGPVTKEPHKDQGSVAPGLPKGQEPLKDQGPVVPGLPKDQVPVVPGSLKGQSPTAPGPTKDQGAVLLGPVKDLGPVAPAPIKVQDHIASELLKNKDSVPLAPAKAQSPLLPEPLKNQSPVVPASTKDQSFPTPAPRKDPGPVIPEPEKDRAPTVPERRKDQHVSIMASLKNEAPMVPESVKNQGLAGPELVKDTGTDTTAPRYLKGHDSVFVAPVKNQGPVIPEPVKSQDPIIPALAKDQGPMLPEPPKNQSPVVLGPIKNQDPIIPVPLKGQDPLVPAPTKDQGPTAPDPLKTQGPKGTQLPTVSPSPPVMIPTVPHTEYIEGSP

B1: neurofilament medium polypeptide (protein, UniProt P08553 1-848)
chain: MSYTLDSLGNPSAYRRVTETRSSFSRVSGSPSSGFRSQSWSRGSPSTVSSSYKRSALAPRLAYSSAMLSSAESSLDFSQSSSLLNGGSGGDYKLSRSNEKEQLQGLNDRFAGYIEKVHYLEQQNKEIEAEIQALRQKQASHAQLGDAYDQEIRELRATLEMVNHEKAQVQLDSDHLEEDIHRLKERFEEEARLRDDTEAAIRALRKDIEESSMVKVELDKKVQSLQDEVAFLRSNHEEEVADLLAQIQASHITVERKDYLKTDISTALKEIRSQLECHSDQNMHQAEEWFKCRYAKLTEAAEQNKEAIRSAKEEIAEYRRQLQSKSIELESVRGTKESLERQLSDIEERHNHDLSSYQDTIQQLENELRGTKWEMARHLREYQDLLNVKMALDIEIAAYRKLLEGEETRFSTFSGSITGPLYTHRQPSVTISSKIQKTKVEAPKLKVQHKFVEEIIEETKVEDEKSEMEETLTAIAEELAASAKEEKEEAEEKEEEPEAEKSPVKSPEAKEEEEEGEKEEEEEGQEEEEEEDEGVKSDQAEEGGSEKEGSSEKDEGEQEEEEGETEAEGEGEEAEAKEEKKIEGKVEEVAVKEEIKVEKPEKAKSPMPKSPVEEVKPKPEAKAGKGEQKEEEKVEEEKKEVTKESPKEEKVEKKEEKPKDVADKKKAESPVKEKAVEEVITISKSVKVSLEKDTKEEKPQPQEKVKEKAEEEGGSEEEGSDRSPQESKKEDIAINGEVEGKEEEEQETQEKGSGREEEKGVVTNGLDVSPAEEKKGEDSSDDKVVVTKKVEKITSEGGDGATKYITKSVTVTQKVEEHEETFEEKLVSTKKVEKVTSHAIVKEVTQGD
B2: SH3-containing grb2-like protein 3-interacting protein 1 (protein, UniProt Q8VD37 1-806)
chain: MMEGLKKRTRKAFGIRKKEKDTDSTGSPDRDGMQPSPHEPPYHSKAECAREGGKKASKKSNGAPNGFYAEIDWERYNSPELDEEGYSIRPEEPGSTKGKHFYSSSESEEEEESHKKFNIKIKPLQSKDVLKNAATVDELKASIGNIALSPSPVRKSPRRSPGAIKRNLSSEEVARPRRSTPTPELTSKKPLDDTLALAPLFGPPLESAFDEQKTEVLLDQPEIWGSGQPMNPSTESPELARPFPTGTPPPLPPKTVPATPPRTGSPLTVATGNDQAATEAKIEKLPSISDLDSIFGPVLSPKSVAVNTEEKWVHFSDASPEHVTPELTPREQVVTPPAASDIPADSPAPAPPGPTGSAGPPGPPGPRHVPSPLNLEEVQKKVAEQTFIKDDYLETLSSPKECGLGQRATPPPPPPPTYRTVVSSPGPGSGSGTGTTSGASSPARPATPLVPCSTTPPPPPPRPPSRPKLPPGKPGVGDVSRPFSPPIHSSSPPPIAPLARAESTSSISSTNSLSAATTPTVGSSRGPSPLTMGAQDTLPVAAAFTETVNAYFKGADPSKCIVKITGEMVLSFPAGITRHFANNPSPAALTFRVVNSSRLEHVLPNPQLLCCDNTQNDANTKEFWVNMPNLMTHLKKVSEQKPQATYYNVDMLKYQVSAQGIQSTPLNLAVNWRCEPASTDLRIDYKYNTDAMSTAVALNNVQFLVPIDGGVTKLQAVLPPAVWNAEQQRILWKIPDISQKSENGGVGSLLARFQLSEGPSKPSPLVVQFTSEGSTLSGCDIELVGAGYRFSLIKKRFAAGKYLADN
B3: peroxiredoxin 1 (enzyme, UniProt P35700 1-199)
chain: MSSGNAKIGYPAPNFKATAVMPDGQFKDISLSEYKGKYVVFFFYPLDFTFVCPTEIIAFSDRADEFKKLNCQVIGASVDSHFCHLAWINTPKKQGGLGPMNIPLISDPKRTIAQDYGVLKADEGISFRGLFIIDDKGILRQITINDLPVGRSVDEIIRLVQAFQFTDKHGEVCPAGWKPGSDTIKPDVNKSKEYFSKQK
B4: peroxiredoxin 2 (enzyme, UniProt Q61171 1-198)
chain: MASGNAQIGKSAPDFTATAVVDGAFKEIKLSDYRGKYVVLFFYPLDFTFVCPTEIIAFSDHAEDFRKLGCEVLGVSVDSQFTHLAWINTPRKEGGLGPLNIPLLADVTKSLSQNYGVLKNDEGIAYRGLFIIDAKGVLRQITVNDLPVGRSVDEALRLVQAFQYTDEHGEVCPAGWKPGSDTIKPNVDDSKEYFSKHN
B5: precursor of dihydrolipoamide S-acetyltransferase (enzyme, UniProt Q8BMF4 86-642)
chain: SLPPHQKVPLPSLSPTMQAGTIARWEKKEGEKISEGDLIAEVETDKATVGFESLEECYMAKILVPEGTRDVPVGSIICITVEKPQDIEAFKNYTLDLAAAAAPQAAPAAAPAPAAAPAAPSASAPGSSYPTHMQIVLPALSPTMTMGTVQRWEKKVGEKLSEGDLLAEIETDKATIGFEVQEEGYLAKILVPEGTRDVPLGAPLCIIVEKQEDIAAFADYRPTEVTSLKPQAAPPAPPPVAAVPPTPQPVAPTPSAAPAGPKGRVFVSPLAKKLAAEKGIDLTQVKGTGPEGRIIKKDIDSFVPSKAAPAAAAAMAPPGPRVAPAPAGVFTDIPISNIRRVIAQRLMQSKQTIPHYYLSVDVNMGEVLLVRKELNKMLEGKGKISVNDFIIKASALACLKVPEANSSWMDTVIRQNHVVDVSVAVSTPAGLITPIVFNAHIKGLETIASDVVSLASKAREGKLQPHEFQGGTFTISNLGMFGIKNFSAIINPPQACILAIGASEDKLIPADNEKGFDVASVMSVTLSCDHRVVDGAVGAQWLAEFKKYLEKPITMLL

biological target: Ack1 (activated Cdc42-associated tyrosine kinase) (mouse (endogenous in brain)) (UniProt O54967); assay: affinity purification with mass spectrometry; Ack1 immunoprecipitated from adult and P5 mouse brain homogenates (1% Triton X-100, 150 mM NaCl, HEPES pH 7.5) with a 1:1 mix of monoclonal and polyclonal Ack1 antibodies overnight at 4°C, protein G-sepharose; SDS-PAGE, band of about 100 to 130 KDa cut, trypsin, LC-MS/MS (first assays also MALDI-TOF)

binding, binds:
CAMKII-α (Calmodulin kinase II) (from UniProt P11798 1-478) (enzyme), NCAM 1 (from UniProt P13595 20-1115), Neurabin-2 (from UniProt Q6R891 1-817), SynGAP (from UniProt F6SEU4 1-1340), microtubule-associated protein MAP 4 (from UniProt P27546 1-1125), microtubule-associated protein MAP 6 (from UniProt Q7TSJ2 1-906)

biological target: Ack1 (activated Cdc42-associated tyrosine kinase) (mouse (endogenous in brain)) (UniProt O54967); assay: as above; remark: another data set of the same source

binding, binds:
B1, B2, B3, B4, B5

No constants are given. Whether binding was seen depends on the method and setting. Binding seen in cells or lysates may run through a third protein. A yes stands for co-enrichment or nearness to the bait. Other partners may have been found.
